# Experimental data as given in the supplement of paper PMC11409438.
# Structures can show the parent of a compound that is named as a salt. Some of the results follow. Most values come without repeats; read them as rough.
# How the values were obtained:
# [1] = test system: Caenorhabditis elegans ST65 (ncIs13[ajm-1::GFP]); assay: 'Larvae/adult' ratio (MetaXpress pharynx counts; minimum value 1, so it appears to include adults; growth inhibition read-out); settings: 10 µM; exposure time: 4-5 days from L1 at 20°C
# [2] = test system: Caenorhabditis elegans ST65 (ncIs13[ajm-1::GFP]); assay: vulvae per adult worm (MAPK/ERK-dependent vulval induction, MetaXpress) (vulvae/adult); higher = more vulval induction (less MAPK/ERK inhibition); settings: 10 µM; exposure time: 4-5 days from L1 at 20°C
SMILES,'Larvae/adult' ratio [1],vulvae per adult worm [2]
COc1ccc(CCc2nc3cc(-c4c(C)noc4C)ccc3n2C[C@H](C)N2CCOCC2)cc1Cl,3.41,0.882
CCCCCCCCc1ccc(CCC(N)(CO)CO)cc1 [Fingolimod (FTY720) HCl],2,1
COCCOc1cnc2ccn([C@H](C)c3nnc4c(F)cc(-c5cnn(C)c5)cn34)c(=O)c2c1,2.12,0.92
O=C(NOC[C@H](O)CO)c1ccc(F)c(F)c1Nc1ccc(I)cc1F,1.4,0.025
C[C@]1(c2nc3c(C(N)=O)cccc3[nH]2)CCCN1 [Veliparib (ABT-888)],3.23,1.14
CCC1=C[C@@H]2CN(C1)Cc1c([nH]c3ccccc13)[C@@](C(=O)OC)(c1cc3c(cc1OC)N(C)[C@H]1[C@@](O)(C(=O)OC)[C@H](OC(C)=O)[C@]4(CC)C=CCN5CC[C@]31[C@@H]54)C2 [Vinorelbine Tartrate],1.71,1.29
N#Cc1ccc2[nH]c(O)c(-c3ccc(CN4CCOCC4)cn3)c2c1,1.98,0.882
Nc1ncn([C@@H]2O[C@H](CO)[C@@H](O)[C@H]2O)c(=O)n1 [Azacitidine],2,1
Cc1nc(Nc2n[nH]c3c2CN(C(=O)N[C@H](CN(C)C)c2ccccc2)C3(C)C)c2sccc2n1,2,1
"CC[C@H](Nc1ncnc2[nH]cnc12)c1nc2cccc(F)c2c(=O)n1-c1ccccc1 [Idelalisib (CAL-101, GS-1101)]",2.3,1.22
NC(=O)N1CCC(CC(=O)N2CCC([C@H]3c4ncc(Br)cc4CCc4cc(Cl)cc(Br)c43)CC2)CC1 [Lonafarnib],2,0.778
COc1cc(OC2CCN(C)CC2)ccc1Nc1ncc2c(n1)n(C1CCCC1)c(=O)n2C,4.18,0.727
O=C(NC[C@H](O)CN1CCc2ccccc2C1)c1cc(NC2COC2)ncn1,1.97,1.1
CC(C)Oc1ccc(C(=O)N[C@H](CNC(=O)CN(C)C)Cc2ccc(-c3cn4cccc([C@H](C)O)c4n3)cc2)cc1Cl,3,1.06
CCN(CCCOc1ccc2c(Nc3cc(CC(=O)Nc4cccc(F)c4)[nH]n3)ncnc2c1)CCOP(=O)(O)O [Barasertib (AZD1152-HQPA)],2.64,1.09
CN(C)C(=O)c1ccc(S(=O)(=O)c2ccc(NC(=O)[C@@](C)(O)C(F)(F)F)c(Cl)c2)cc1,2.56,1

# In a second layout: entries from further up
SMILES	'Larvae/adult' ratio [1]	vulvae per adult worm [2]
CCC1=C[C@@H]2CN(C1)Cc1c([nH]c3ccccc13)[C@@](C(=O)OC)(c1cc3c(cc1OC)N(C)[C@H]1[C@@](O)(C(=O)OC)[C@H](OC(C)=O)[C@]4(CC)C=CCN5CC[C@]31[C@@H]54)C2 [Vinorelbine Tartrate]	1.71	1.29
N#Cc1ccc2[nH]c(O)c(-c3ccc(CN4CCOCC4)cn3)c2c1	1.98	0.882
Nc1ncn([C@@H]2O[C@H](CO)[C@@H](O)[C@H]2O)c(=O)n1 [Azacitidine]	2	1
Cc1nc(Nc2n[nH]c3c2CN(C(=O)N[C@H](CN(C)C)c2ccccc2)C3(C)C)c2sccc2n1	2	1
CC[C@H](Nc1ncnc2[nH]cnc12)c1nc2cccc(F)c2c(=O)n1-c1ccccc1 [Idelalisib (CAL-101, GS-1101)]	2.3	1.22
NC(=O)N1CCC(CC(=O)N2CCC([C@H]3c4ncc(Br)cc4CCc4cc(Cl)cc(Br)c43)CC2)CC1 [Lonafarnib]	2	0.778
COc1cc(OC2CCN(C)CC2)ccc1Nc1ncc2c(n1)n(C1CCCC1)c(=O)n2C	4.18	0.727
O=C(NC[C@H](O)CN1CCc2ccccc2C1)c1cc(NC2COC2)ncn1	1.97	1.1
CC(C)Oc1ccc(C(=O)N[C@H](CNC(=O)CN(C)C)Cc2ccc(-c3cn4cccc([C@H](C)O)c4n3)cc2)cc1Cl	3	1.06

# Going on with the list.

SMILES,'Larvae/adult' ratio [1],vulvae per adult worm [2]
Clc1ccc(C(c2ccccc2Cl)C(Cl)Cl)cc1 (centres undefined) [Mitotane],2.14,0.5
Cc1cc2c(F)c(Oc3ncnn4cc(OC[C@@H](C)O)c(C)c34)ccc2[nH]1,2.1,0.9
CC(C)(C)c1cc(NC(=O)Nc2ccc(-c3cn4c(n3)sc3cc(OCCN5CCOCC5)ccc34)cc2)no1 [Quizartinib (AC220)],3.39,1.1
CNC(=O)c1cccc(-c2ccc3c(N4CCOC[C@@H]4C)nc(N4CCOC[C@@H]4C)nc3n2)c1 [Vistusertib (AZD2014)],3.6,1.9
C[C@@H]1C[C@H]2[C@@H]3CCC4=CC(=O)C=C[C@]4(C)[C@@]3(F)[C@@H](O)C[C@]2(C)[C@@]1(O)C(=O)CO [Dexamethasone (DHAP)],1.68,0.818
COc1cccc2c1c(O)c(C(=O)N(C)c1ccc(C(F)(F)F)cc1)c(=O)n2C [Tasquinimod],1.33,1.05
CC(=O)c1cc2c(o1)C(=O)c1ccccc1C2=O [Napabucasin],1.74,0.632
O=C(/C=C\n1cnc(-c2cc(C(F)(F)F)cc(C(F)(F)F)c2)n1)NNc1cnccn1 [Selinexor (KPT-330)],1.87,0.645
Cc1cc(Nc2cc(CN3CCOCC3)c3nc(C)c(Cc4ccc(Cl)cc4F)n3n2)n[nH]1,2.23,0.962
COc1cc2c(NC3CCN(C(C)C)CC3)nc(N3CCC(F)(F)CC3)nc2cc1OCCCN1CCCC1,2.11,0.857
COc1cc2nccc(Oc3ccc(NC(=O)C4(C(=O)Nc5ccc(F)cc5)CC4)cc3)c2cc1OC,2.22,0.111
CO[C@@H](C(=O)N1Cc2[nH]nc(NC(=O)c3ccc(N4CCN(C)CC4)cc3)c2C1)c1ccccc1,1.9,1.4
CNc1nc(-c2ccc3c(N)n[nH]c3c2)cc(N2C[C@@H](C(=O)NC3CCCCC3)CC[C@H]2C)n1,1.63,0.711
C[C@@]1(C(=O)Nc2ccc(F)nc2)CCCN1c1nc(Nc2cc(C3CC3)n[nH]2)c2cccn2n1,1.36,1
CCCCNc1ncc(C(=O)NCc2ccc(-n3ccnc3)cc2)c(NC2CCC(O)CC2)n1 (centres undefined),1.98,1
Cc1cn(-c2cc(NC(=O)c3ccc(C)c(Nc4nccc(-c5cnccn5)n4)c3)cc(C(F)(F)F)c2)cn1 [Radotinib],1.93,1
